Data as given in PubChem BioAssay AID1259260 (Sanger Institute, 2017).

Screen: 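Kinome knock-down with three anchor drugs to find synergy partners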 (primary screen)
System: human NCI-H716 colorectal cancer cells
Knock-down reagent: siRNA pool against human genes
Challenge: anchor drugs BYL719 (alpelisib) 1 µM, cetuximab 5 µg/ml or trametinib 10 nM, each at a dose chosen to harm viability only mildly; DMSO vehicle for the knock-down-alone arm
Detection: 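Mean viability over replicates against non-targeting siRNA, robust z-score without drug, and per-drug synergy comparing combined with single treatments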
Reading the numbers: viability robust z-score, siRNA alone: higher = more surviving cells; below -3 called essential; viability vs control, no drug: higher = more surviving cells; synergy score with BYL719 and synergy score with cetuximab and synergy score with trametinib: higher = stronger synergy (synthetic lethality) with drug
Active means: 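a knock-down counts as essential if its no-drug robust z-score is lower than -3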
Calls: active = essential (knock-down alone lowers viability); inactive = no essential effect
The whole screen tested 794 reagents; shown is an unselected part. 13 of all reagents (1.6%) count as active. 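Calls reflect only knock-down without drug; synergy above 0.15 was grouped apart and does not change the call.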 No viability above 1 is reported: the scale is capped. Not stated in the record: the amount of reagent, the time to read-out.

The first 6 entries as a preview:
| gene knocked down | viability robust z-score, siRNA alone | viability vs control, no drug (fraction of control) | synergy score with BYL719 | synergy score with cetuximab | synergy score with trametinib | Call |
| --- | --- | --- | --- | --- | --- | --- |
| MAP3K3 | 0.283 | 0.967 | -0.256 | -0.13 | -0.033 | inactive |
| MAP2K7 | -0.00279 | 0.937 | -0.195 | -0.157 | -0.0559 | inactive |
| NEK7 | 0.602 | 1 | -0.219 | -0.1 | -0.0376 | inactive |
| BMAL1 | 0.41 | 0.98 | -0.000173 | -0.118 | 0.227 | inactive |
| PIK3CA | 0.46 | 0.985 | -0.153 | -0.114 | 0.117 | inactive |
| NR4A2 | 0.602 | 1 | -0.261 | -0.1 | 0.0774 | inactive |

Results, repeating the preview:
| gene knocked down | viability robust z-score, siRNA alone | viability vs control, no drug (fraction of control) | synergy score with BYL719 | synergy score with cetuximab | synergy score with trametinib | Call |
| --- | --- | --- | --- | --- | --- | --- |
| MAP3K3 | 0.283 | 0.967 | -0.256 | -0.13 | -0.033 | inactive |
| MAP2K7 | -0.00279 | 0.937 | -0.195 | -0.157 | -0.0559 | inactive |
| NEK7 | 0.602 | 1 | -0.219 | -0.1 | -0.0376 | inactive |
| BMAL1 | 0.41 | 0.98 | -0.000173 | -0.118 | 0.227 | inactive |
| PIK3CA | 0.46 | 0.985 | -0.153 | -0.114 | 0.117 | inactive |
| NR4A2 | 0.602 | 1 | -0.261 | -0.1 | 0.0774 | inactive |
| DYRK1A | 0.465 | 0.986 | -0.224 | -0.113 | 0.135 | inactive |
| SBK1 | 0.602 | 1 | -0.215 | -0.1 | -0.04 | inactive |
| FN3K | 0.602 | 1 | -0.0384 | 0.132 | 0.263 | inactive |
| TAOK3 | 0.541 | 0.994 | 0.106 | 0.317 | 0.154 | inactive |
| NF1 | 0.602 | 1 | -0.204 | -0.1 | 0.139 | inactive |
| KSR1 | -1.11 | 0.822 | -0.164 | -0.235 | 0.0213 | inactive |
| MYO3B | 0.602 | 1 | 0.00334 | -0.1 | 0.0277 | inactive |
| SRC | 0.602 | 1 | -0.283 | -0.1 | -0.301 | inactive |
| PDIK1L | 0.602 | 1 | -0.154 | -0.0708 | -0.0354 | inactive |
| PHKA1 | 0.602 | 1 | -0.0574 | 0.00341 | -0.0297 | inactive |
| SGK3 | 0.602 | 1 | -0.0295 | 0.0223 | 0.0305 | inactive |
| SIK1 | 0.5 | 0.989 | 0.0355 | 0.112 | 0.0797 | inactive |
| CLK4 | -1.38 | 0.794 | -0.0194 | 0.00672 | 0.0903 | inactive |
| MAST3 | 0.602 | 1 | -0.095 | -0.1 | 0.3 | inactive |
| EIF2AK2 | -0.123 | 0.925 | -0.193 | -0.0536 | -0.184 | inactive |
| PRKAR1A | 0.602 | 1 | -0.124 | -0.1 | -0.00573 | inactive |
| NUAK2 | 0.602 | 1 | 0.0469 | -0.0588 | -0.091 | inactive |
| ERN1 | 0.602 | 1 | -0.103 | -0.1 | -0.132 | inactive |
| PRKAB1 | 0.602 | 1 | -0.248 | -0.1 | -0.0978 | inactive |
| IRAK4 | 0.602 | 1 | -0.119 | -0.1 | 0.176 | inactive |
| MKNK1 | 0.602 | 1 | -0.266 | -0.1 | 0.0703 | inactive |
| PIP5K1A | -1.05 | 0.828 | -0.116 | -0.0255 | 0.0159 | inactive |
| PIP5K1B | 0.153 | 0.953 | -0.0635 | 0.0684 | 0.135 | inactive |
| FLT4 | 0.602 | 1 | -0.283 | -0.1 | 0.0462 | inactive |
| ROS1 | -0.402 | 0.896 | -0.241 | -0.0242 | -0.0703 | inactive |
| PAPSS2 | 0.602 | 1 | -0.283 | -0.1 | -0.0246 | inactive |
| HCK | 0.602 | 1 | -0.274 | -0.1 | 0.0905 | inactive |
| DMPK | -1.2 | 0.813 | -0.147 | -0.253 | -0.0975 | inactive |
| PFKFB3 | 0.602 | 1 | -0.269 | -0.1 | 0.0258 | inactive |
| AK1 | -0.471 | 0.888 | -0.0989 | 0.0432 | 0.0167 | inactive |
| JAK2 | 0.602 | 1 | -0.283 | 0.102 | -0.0642 | inactive |
| CRIM1 | -2.2 | 0.709 | -0.0533 | -0.123 | 0.0247 | inactive |
| CASK | 0.602 | 1 | -0.283 | -0.1 | -0.208 | inactive |
| CAMKK1 | 0.454 | 0.985 | -0.158 | -0.0868 | -0.0647 | inactive |
| SRP72 | 0.602 | 1 | -0.241 | -0.1 | -0.153 | inactive |
| WT1 | 0.602 | 1 | -0.239 | -0.1 | -0.105 | inactive |
| MAP3K11 | 0.602 | 1 | -0.153 | -0.1 | -0.175 | inactive |
| MST1R | 0.602 | 1 | -0.0238 | 0.0302 | 0.0753 | inactive |
| ERBB3 | -0.812 | 0.853 | -0.0108 | 0.0581 | 0.181 | inactive |
| APC | 0.214 | 0.96 | -0.0836 | -0.068 | 0.222 | inactive |
| HUNK | 0.602 | 1 | -0.1 | -0.1 | 0.258 | inactive |
| MAP3K9 | 0.602 | 1 | -0.194 | -0.1 | -0.271 | inactive |
| TRIB1 | -1.31 | 0.801 | -0.0688 | 0.0635 | 0.0798 | inactive |
| PRKAA2 | 0.602 | 1 | -0.283 | -0.1 | -0.137 | inactive |
